Results as given in publication PMC6028838, “A new terpene coumarin microbial transformed by Mucor polymorphosporus induces apoptosis of human gastric cancer cell line MGC-803” (Archives of Pharmacal Research, 2018).

The molecules below were run on human gastric cancer cell line MGC-803 (assay: MTT antiproliferation assay, MGC-803 cells). Conditions: IC50 (GES-1)/IC50 (MGC-803).
Format: cell-based
Protocol: The human gastric cancer cell line MGC-803 and human normal gastric epithelial cell line GES-1 were cultured in DMEM containing penicillin (100 U/mL), streptomycin (100 μg/mL), and 10% FBS at 37 °C with 5% CO2. Cells that used in experiments were passaged at least three times.
Cells were seeded in 96-well plates at a density of 5 × 10^4/well and cultured at 37 °C with 5% CO2 for 24 h. And then, compounds (1–5) in various concentrations were introduced with incubation for another 48 h. Finally, 10 μL MTT (5 mg/mL) was added to each well. After 4 h incubation, the medium was removed and 150 μL DMSO was added. Absorbance was read on a Microplate Reader at 570 nm (Bio Tek, Thenceforth, USA) (Li et al. [2014]). The MTT assay aims to evaluate the antiproliferative effects of the test compounds in MGC-803 cells and the cytotoxic effects in GES-1 cells.

Compared with `C/C(=C/C(O)C/C(C)=C\COc1ccc2ccc(=O)oc2c1)CO` (stereo not shown) [Compound 5, 7-(((2′Z,6′Z)-5′,9′-hydroxy-3′,7′-dimethylocta-2′,6′-dien-1′-yl)oxy)-2H-chromen-2-one], `C/C(=C/CC/C(C)=C\COc1ccc2ccc(=O)oc2c1)CO` [Compound 3, 7-(((2′Z,6′Z)-9′-hydroxy-3′,7′-dimethylocta-2′,6′-dien-1′-yl)oxy)-2H-chromen-2-one] is higher in “TI (therapeutic index)” value: 3.3 for the first, 5.4 for the second.

Compared with `CC(C)=CCC/C(C)=C\COc1ccc2ccc(=O)oc2c1` [Compound 1, (Z)-7-((3′,7′-dimethylocta-2′,6′-dien-1′-yl)oxy)-2H-chromen-2-one], `C/C(=C/COc1ccc2ccc(=O)oc2c1)CCCO` [Compound 2, 2′-Z auraptene A] is higher in “TI (therapeutic index)” value: 5.5 for the first, 59.0 for the second.
